Measured values as given in article PMC12098580.
These are yes or no findings as the source states them, for the method shown. Binding seen in cells or lysates may run through a third protein. Some entries that bind do so weakly or less than the wild type.

Sequences of proteins named here, by UniProt entry; tags and fusion partners are left off.
UniProt Q14457: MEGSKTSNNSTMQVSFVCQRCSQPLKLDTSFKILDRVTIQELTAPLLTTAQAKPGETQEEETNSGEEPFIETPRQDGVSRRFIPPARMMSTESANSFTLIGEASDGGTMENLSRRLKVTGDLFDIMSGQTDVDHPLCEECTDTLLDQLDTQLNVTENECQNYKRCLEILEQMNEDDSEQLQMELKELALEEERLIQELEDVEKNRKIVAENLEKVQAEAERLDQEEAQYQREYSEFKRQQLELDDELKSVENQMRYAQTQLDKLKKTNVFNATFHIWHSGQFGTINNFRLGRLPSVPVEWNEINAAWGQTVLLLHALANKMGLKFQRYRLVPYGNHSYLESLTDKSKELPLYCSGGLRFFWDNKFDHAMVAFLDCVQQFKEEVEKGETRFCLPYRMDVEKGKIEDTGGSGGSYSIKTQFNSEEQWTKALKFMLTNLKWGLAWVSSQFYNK
UniProt P10415: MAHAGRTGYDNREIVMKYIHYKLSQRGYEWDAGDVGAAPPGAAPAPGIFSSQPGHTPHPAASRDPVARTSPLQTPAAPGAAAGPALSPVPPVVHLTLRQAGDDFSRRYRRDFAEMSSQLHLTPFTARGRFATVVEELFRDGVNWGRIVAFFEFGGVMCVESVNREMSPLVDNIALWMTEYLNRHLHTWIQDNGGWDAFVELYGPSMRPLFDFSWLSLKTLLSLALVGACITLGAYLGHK

Target: Beclin-1 (BECN1) (human (endogenous in SW620 and DLD1)) (UniProt Q14457)
Assay: co-IP; endogenous proteins in lysates of SW620 and DLD1 cells; BECN1 antibody (IgG as control) on protein A/G magnetic beads, lysate incubated at 4 °C overnight, beads washed thrice, Western blot; cells untreated (Control) or treated with 80 nM CS-6

binding: binds
Substance: B-cell lymphoma-2 (Bcl2) (from UniProt P10415 1-239)
